Measured values published in patent publication US7445894B2, “Compositions and methods for detection and isolation of phosphorylated molecules” (priority 2002, dated 2008).

Tested on: Abl peptide
Assay: Microarray detection of Abl peptide labeled with ATP-γ-S or ATP by Abl Protein Tyrosine Kinase

Substance: Rhod-5F [Compound 2]
- Sensitivity of detection after kinase reaction (control reaction using ATP): 0.325 pg
- Sensitivity of detection after kinase reaction (peptide labeled using ATP-γ-S (phosphorothioate)): 2.6 pg
